Results are given in words; binding and its absence hold for the method and conditions named. Binding seen in cells or lysates may run through a third protein. A yes stands for co-enrichment or nearness to the bait. Other partners may have been found.
target: Flag-STING (UniProt Q86WV6); assay: affinity purification with mass spectrometry; Flag-STING transfected into SiHa cells for 48 h; lysate precipitated with anti-Flag antibody, IgG as negative control; SDS-PAGE, silver stain, LC-MS/MS (Q Exactive HF), MaxQuant

By UniProt entry, the sequences of proteins in these tests, tags left out.
UniProt Q86WV6: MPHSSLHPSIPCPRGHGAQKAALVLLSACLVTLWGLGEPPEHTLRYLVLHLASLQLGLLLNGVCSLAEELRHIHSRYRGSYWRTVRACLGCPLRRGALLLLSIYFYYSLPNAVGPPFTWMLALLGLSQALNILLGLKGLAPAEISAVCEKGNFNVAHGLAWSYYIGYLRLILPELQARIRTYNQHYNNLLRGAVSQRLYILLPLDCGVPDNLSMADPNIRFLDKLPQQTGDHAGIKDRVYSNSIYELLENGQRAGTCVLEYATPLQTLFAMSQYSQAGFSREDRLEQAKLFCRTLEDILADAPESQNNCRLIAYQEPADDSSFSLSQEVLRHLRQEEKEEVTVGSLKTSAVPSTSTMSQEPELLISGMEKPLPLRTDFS
UniProt Q9UNE7: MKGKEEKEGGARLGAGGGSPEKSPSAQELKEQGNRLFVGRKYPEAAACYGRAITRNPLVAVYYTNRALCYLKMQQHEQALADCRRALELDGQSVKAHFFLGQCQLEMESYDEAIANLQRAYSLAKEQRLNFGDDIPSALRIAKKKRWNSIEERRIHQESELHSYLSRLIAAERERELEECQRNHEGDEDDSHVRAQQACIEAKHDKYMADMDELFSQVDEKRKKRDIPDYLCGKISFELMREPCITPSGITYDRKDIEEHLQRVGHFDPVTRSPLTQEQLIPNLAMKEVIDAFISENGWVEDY
UniProt P19474: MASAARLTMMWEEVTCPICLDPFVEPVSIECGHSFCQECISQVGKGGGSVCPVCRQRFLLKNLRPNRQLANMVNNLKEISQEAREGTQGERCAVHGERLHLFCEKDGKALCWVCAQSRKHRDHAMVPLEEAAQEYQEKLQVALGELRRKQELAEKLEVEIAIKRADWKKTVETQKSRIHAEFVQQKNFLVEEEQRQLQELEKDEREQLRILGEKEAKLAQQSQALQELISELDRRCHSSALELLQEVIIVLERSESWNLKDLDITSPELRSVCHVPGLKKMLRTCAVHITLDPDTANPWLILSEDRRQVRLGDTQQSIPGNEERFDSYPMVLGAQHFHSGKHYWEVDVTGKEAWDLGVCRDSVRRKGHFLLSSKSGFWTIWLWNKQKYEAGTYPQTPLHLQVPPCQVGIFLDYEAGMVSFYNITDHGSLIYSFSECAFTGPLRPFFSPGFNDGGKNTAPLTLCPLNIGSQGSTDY
UniProt O95816: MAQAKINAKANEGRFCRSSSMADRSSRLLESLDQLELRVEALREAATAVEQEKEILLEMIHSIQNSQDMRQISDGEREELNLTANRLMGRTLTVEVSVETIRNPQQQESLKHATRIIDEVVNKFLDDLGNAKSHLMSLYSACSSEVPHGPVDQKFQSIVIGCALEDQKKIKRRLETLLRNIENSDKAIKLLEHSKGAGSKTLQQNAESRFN

binding, binds:
STUB1 (endogenous) (from UniProt Q9UNE7 1-303) (enzyme)
TRIM21 (endogenous) (from UniProt P19474 1-475) (enzyme)
BAG2 (endogenous) (from UniProt O95816 1-211)

Reference: PMC12362813
